Measured values as given in patent US20230146233A1, “A CLASS OF POLYCYCLIC COMPOUNDS INHIBITING RNA HELICASE DHX33 AND THE APPLICATION THEREOF” (Shenzhen KeYe Life Technologies, Co., Ltd, priority 2020, published 2023).
For at least one compound, name, drawing or mass did not settle the structure.

Test system: transcript levels of CCNE2, E2F1 and MCM3
Test: Regulation of known downstream genes of DHX33 (real-time quantitative PCR in U251 cells)
Type: cell-based
Conditions: 30 nM, 40 nM and 50 nM, 16 hours, GAPDH internal reference, P<0.05, n=3

## COc1cc2nc(/C(C#N)=C/c3cc(C)n(-c4oc(C)c(C)c4C#N)c3C)[nH]c2cn1 [AB24254, (E)-2-(3-(2-cyano-2-(6-methoxy-3H-imidazo[4,5-c]pyridin-2-yl)vinyl)-2,5-dimethyl-1H-pyrrol-1-yl)-4,5-dimethylfuran-3-carbonitrile]
  Effect on the transcription of DHX33 downstream genes (CCNE2, MCM3, E2F1): significant inhibitory effects
